# Source: PubChem BioAssay AID504444 (National Center for Advancing Translational Sciences (NCATS), 2011)
# The campaign covered roughly 360,000 compounds. About 7,500 (2.1%) were called active. Inconclusive means that the source gave no clear call. Such entries were picked first, then a sample of the others. Calls come from the whole dose curve; as a rule, active = well fitted inhibition curve with a large enough effect; inconclusive = small, poorly fitted or top-dose-only effect, or effect the other way; inactive = flat fitted curve, though single readings scatter. Potencies beside an inconclusive call are fits to weak or partial responses and may not hold up.
# Experiment: Nrf2 qHTS screen for inhibitors; note: nearly all actives have a fitted effect of over 60% in size
# Details: A549 ARE-Fluc reporter, luciferase luminescence, 18-24 h; series mostly up to 46 µM
# Outline: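 Concentration-response testing used A549 ARE_Fluc cells at 5000 cells/well. Following an 18-24 h compound incubation, viability was read by fluorescence (Ex 405/Em 525) and luciferase output by luminescence.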
# Potency is the fitted concentration of half-maximal effect.
row,SMILES,Potency
1,CCNC(=S)N/N=C/c1cc(C)n(-c2ccc(Cl)cc2)c1C,"inconclusive: 20.6 µM [activator, single point]"
2,O=C(c1cccc(S(=O)(=O)Nc2ccccc2F)c1)N1CCN(c2ccccc2F)CC1,"inconclusive: 7.31 µM [falling, partial curve, poor fit]"
3,Cc1cc(C)n(C(=O)/C(C#N)=N/Nc2cc(Cl)cc(Cl)c2)n1,"inconclusive: 25.9 µM [falling, single point]"
4,O=C(COc1ccc(Cl)cc1)OCc1cc(=O)n2nc(-c3cccs3)sc2n1,"inconclusive: 14.6 µM [activator, single point]"
5,Nc1nonc1-c1nc2ccccc2n1CC(=O)NC1CCCC1,"inconclusive: 9.2 µM [falling, partial curve]"
6,O=C1CCCC2=C1C(c1cccs1)n1nc(SCc3ccccc3)nc1N2 (stereo not drawn),"inconclusive: 29.1 µM [falling, single point]"
7,C(/C=C/c1ccccn1)=C\c1ccccc1,"inconclusive: 7.31 µM [activator, partial curve]"
8,CCCn1c(CCc2ccccc2)n[nH]c1=S,"inconclusive: 29.1 µM [falling, single point]"
9,CCCCCCOc1ccc(C(=O)NCCCn2ccnc2)cc1,"inconclusive: 29.1 µM [falling, single point]"
10,Cc1cc(C(=O)Nc2ccccc2C)on1,"inconclusive: 1.46 µM [falling, partial curve, poor fit]"
11,CC1CCCN(C(=O)COC(=O)Cc2c[nH]c3ccccc23)C1 (stereo not drawn),inactive
12,CCOc1ccc(N2C(=O)S/C(=C\c3ccc(O)c(OCC)c3)C2=O)cc1,"inconclusive: 7.31 µM [falling, partial curve, poor fit]"
13,FC(F)Oc1ccc(NC(=S)NC2CCSc3ccccc32)cc1 (stereo not drawn),"inconclusive: 25.9 µM [falling, single point]"
14,Cc1ccccc1N1C(=O)C(Oc2ccc(Cl)cc2)C1CNCC1CCCO1 (stereo not drawn),"inconclusive: 6.51 µM [falling, single point]"
15,COc1ccc(C(=O)CC(=O)C(=O)Nc2ccc(C)c(C)c2)cc1,"inconclusive: 25.9 µM [activator, single point]"
16,Cc1n[nH]c(=O)n1-c1ccc(OCc2ccccc2)cc1,"inconclusive: 9.2 µM [activator, partial curve]"
17,CCc1cc2c(N3CCN(c4ccccc4)CC3)ncnc2s1,active: 18.4 µM
18,COCCN(CCOC)C(=S)Nc1ccccc1Cl,"inconclusive: 0.058 µM [falling, partial curve, poor fit]"

# Reprinted at random: 2 entries already listed, in no set order.
row,SMILES,Potency
18,COCCN(CCOC)C(=S)Nc1ccccc1Cl,"inconclusive: 0.058 µM [falling, partial curve, poor fit]"
8,CCCn1c(CCc2ccccc2)n[nH]c1=S,"inconclusive: 29.1 µM [falling, single point]"
